Each structure is given as a SMILES string. This is one part of the list. Further columns of the screen follow, without active or inactive calls. The list favours compounds with an active or inconclusive main result. Potencies come from curve fits of mixed quality, noted in brackets.

As a reminder, the AC50 is the midpoint of the concentration-response curve, whichever way the signal moves. A high value points to weaker potency.

This assay in a line: qHTS Assay for Lipid Storage Modulators in Drosophila S3 Cells.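 As to cell number change: cells counted by Cell Tracker Red CMTPX staining in the red channel.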 The note with it: BODIPY lipid droplet fluorescence, 18-24 h; for cell number change: measured here: cell count max response, cells fed with added oleic acid. Put shortly: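 Drosophila S3 cells got compounds at several concentrations plus oleic acid (400 uM solution). Laser-scanning cytometry with 488 nm excitation read lipid droplets at 500-530 nm and cells at 575-640 nm. Percent activity was relative to 20 uM Triacsin C.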
In general terms: qHTS replaces the single test concentration by a dilution series.

Where [1] appears, read: measured here: cell number channel AC50, cells fed with added oleic acid.
[2] abbreviates: measured here: lipid fluorescence (Fed channel) AC50, cells fed with added oleic acid.

Take `Cc1cc(C)n2nnnc2c1C#N`: the cell number change worked out at 3.76%. In addition, the half-maximal activity concentration (AC50) under setting [1] is 0.13 µM [falling, full curve, poor fit]. With `N#Cc1cc2c(=O)n3ccccc3nc2n(Cc2ccco2)c1=NC(=O)c1ccco1`, the cell number change stood at 2.98%. Besides, under setting [2], the AC50 was 0.231 µM [falling, full curve, poor fit]. Consider `Cc1nc2nc(C)n(-c3ccccc3)c2s1`, for which the cell number change amounted to 25%. Also, the half-maximal activity concentration (AC50) under setting [2] is 29.1 µM [rising, single point]. Take `CCCC(c1nnnn1C(C)(C)CC)N1CCN(C(=O)c2ccco2)CC1` (stereo not given): the cell number change is 19.2%. Also, the concentration at half-maximal activity (AC50) under setting [2] was 1.16 µM [falling, single point]. On to `Cc1cccc(-c2noc(CN(C(=O)c3c(-c4ccccc4Cl)noc3C)C(C)C)n2)c1`, for which the cell number change was -0.327%. Also, the AC50 under setting [2] was 0.103 µM [rising, single point]. Turning to `CCOc1ccc(NC(=O)CSc2nnc(CCNC(=O)c3ccc(OC)cc3)n2C)cc1`, the cell number change was -13.6%. As to `COCCn1c(=NC(=O)c2sc3ccccc3c2Cl)sc2cc(S(N)(=O)=O)ccc21`, the cell number change was 7.87%. Moreover, the AC50 under setting [2] was 1.84 µM [rising, partial curve]. Consider `O=C1c2ccccc2NC2CCCCC12` (stereo not given), for which the cell number change was -25.6%. For the same compound, under setting [2], the concentration at half-maximal activity (AC50) was 4.11 µM [rising, single point]. With `COc1ccc2oc(C(=O)Nc3nc4ccc(S(C)(=O)=O)cc4s3)c(C)c2c1`, the cell number change is -11.2%.

As for `CCOc1ncccc1C(=O)OCC(=O)c1ccc(F)cc1`, the AC50 was 6.51 µM [rising, single point] under setting [1] and 5.17 µM [rising, partial curve] under setting [2]. Consider `CCCSc1nnc2n(-c3ccccc3OC)c(=O)c3c4c(sc3n12)CCC4`, for which the cell number change worked out at 25.1%. In addition, the AC50 under setting [1] was 0.146 µM [falling, full curve, poor fit]. The AC50 under setting [2] was 6.51 µM [rising, single point]. Take `N#CC1=C(N)N(c2ccccc2)C(c2ccccc2)C1(C#N)C#N` (stereo not given): the cell number change is -24.1%. Under setting [2], the AC50 was 0.13 µM [falling, full curve, poor fit]. On to `O=C1Nc2ccccc2C(O)(C(=O)NCc2ccco2)N1c1ccccc1` (stereo not given), for which the cell number change is -31.2%. The concentration at half-maximal activity (AC50) under setting [1] is 0.0206 µM [falling, full curve, poor fit]. Also, under setting [2], the AC50 was 20.6 µM [falling, single point]. Consider `CCCc1cc(=O)oc2cc(OCC(=O)OC)cc(OCC(=O)OC)c12`, for which the cell number change is 19.8%.

For `O/N=C(\c1ccc(Cl)cc1)c1cc2ccccc2o1`, the cell number change is -84.2%. The AC50 under setting [1] is 29.1 µM [falling, partial curve]. For the same compound, under setting [2], the half-maximal activity concentration (AC50) was 1.64 µM [falling, full curve]. As to `Nn1cc(-c2ccccc2)nc1SCC(=O)Nc1ccc2c(c1)OCO2`, the cell number change was -15.2%. Moreover, the half-maximal activity concentration (AC50) under setting [2] is 13 µM [falling, single point]. With `O=C(CCCN1C(=O)/C(=C/c2ccc3c(c2)OCO3)SC1=S)Nc1cccc(C(=O)O)c1`, the cell number change is 2.16%. In addition, the half-maximal activity concentration (AC50) under setting [2] was 9.2 µM [falling, partial curve, poor fit]. In the case of `COc1ccc(OC)c(-c2nnc(SCC(=O)N3CCCC3)o2)c1`, the cell number change is -8.73%. Further, the AC50 under setting [2] was 3.66 µM [rising, partial curve]. In the case of `O=C(CNCc1ccco1)Nc1ccc(N2CCCCCC2)cc1`, the cell number change came to 3.35%. Also, the AC50 under setting [2] is 18.4 µM [rising, single point]. On to `CCc1ccc(-c2nc(CS(=O)CC(=O)NC3CCCCCC3)c(C)o2)cc1` (stereo not given), for which the cell number change was determined as 10.6%. Further, the half-maximal activity concentration (AC50) under setting [2] was 0.651 µM [rising, full curve, poor fit]. Regarding `CCC(Nc1ccc(OC)cc1)C(=O)N/N=C/c1ccc([N+](=O)[O-])cc1` (stereo not given), the cell number change was found to be 25%. Besides, under setting [2], the AC50 is 16.4 µM [rising, single point]. As for `Cn1c(/C=C/c2ccc(Cl)cc2Cl)c([N+](=O)[O-])c(=O)n(C)c1=O`, the cell number change was -37.8%. The half-maximal activity concentration (AC50) under setting [1] was 0.00651 µM [falling, full curve, poor fit]. As to `O=C(COC(=O)c1ccccc1[N+](=O)[O-])c1ccc(C2CCCCC2)cc1`, the cell number change is -41.1%. In addition, the AC50 under setting [1] is 7.31 µM [falling, partial curve]. Take `COc1ccc(N2CCN(C(=O)C3CCN(S(=O)(=O)c4c(C)noc4/C=C/N(C)C)CC3)CC2)cc1`: the cell number change was -15.6%. In addition, under setting [2], the concentration at half-maximal activity (AC50) is 16.4 µM [rising, partial curve]. As to `COc1ccc(Cl)cc1S(=O)(=O)NC(C)C(=O)NCc1ccc2c(c1)OCO2` (stereo not given), the cell number change came out at 18.3%.

Take `CC1CN(C2CCN(S(=O)(=O)c3ccc(F)cc3)CC2)CC(C)O1` (stereo not given): the cell number change is 9.81%. Moreover, the AC50 under setting [2] is 1.03 µM [falling, full curve]. Take `COc1ccccc1C(=O)NCCC(=O)N1CCN(S(=O)(=O)c2ccccc2C(F)(F)F)CC1`: the AC50 by setting is: under setting [1], 4.11 µM [falling, single point]; under setting [2], 6.51 µM [rising, partial curve, poor fit]. With `Oc1c(CN2CCCCC2)cc(COCc2ccccc2)c2cccnc12`, the cell number change was -22.5%. Besides, under setting [2], the half-maximal activity concentration (AC50) was 6.51 µM [falling, partial curve]. For `Cc1ccc(/C=N/NS(=O)(=O)c2ccc([N+](=O)[O-])cc2)o1`, the cell number change came to 21.9%. Further, the AC50 under setting [2] was 16.4 µM [rising, single point]. With `Cc1ccc2cn[nH]c2c1NC(=S)NC(=O)c1ccccc1`, the cell number change amounted to 15.5%. Moreover, the AC50 under setting [2] is 3.66 µM [falling, single point]. Take `O=c1c(Cc2ccc(Cl)cc2Cl)c(O)ccn1Cc1ccc(Cl)cc1`: the cell number change is -78.6%. Also, the half-maximal activity concentration (AC50) under setting [1] was 29.1 µM [falling, single point]. For the same compound, the AC50 under setting [2] was 23.1 µM [falling, single point]. As for `CC(=O)Nc1cccc(NC(=O)CSc2nc(=O)n(CCN3CCOCC3)c3c2CCCC3)c1`, the cell number change is -4.4%. As to `COc1ccc(CN2C(=O)CCC2(C)C(=O)NC2CCCCC2)c(OC)c1` (stereo not given), the cell number change came to 0.284%. Under setting [2], the AC50 was 29.1 µM [falling, single point]. Consider `CCc1ccc(NC(=O)C(=O)NNC(=O)c2cccc(OC)c2)cc1`, for which the cell number change turned out to be 38.3%. In addition, the AC50 under setting [1] is 25.9 µM [rising, single point].

For the compound `CCC1(c2ccc(F)cc2)NC(=O)N(CC(=O)Nc2cccnc2Cl)C1=O` (stereo not given), the cell number change was found to be 36.5%. Besides, the AC50 under setting [1] was 29.1 µM [rising, single point]. On to `Cc1cccc(N2CCN(C(=O)c3ccc(NS(=O)(=O)c4c(C)noc4C)cc3)CC2)c1C`, for which the cell number change was 45.6%. For the same compound, the AC50 under setting [1] is 20.6 µM [rising, single point]. For the same compound, under setting [2], the AC50 was 6.51 µM [falling, single point]. In the case of `O=S1(=O)CCN(OCc2ccc(Cl)cc2)CC1`, the cell number change is -27.2%. As to `O=C(COc1ccc2c(c1)CCC2)NCc1ccccc1`, the cell number change was -6.19%. Besides, the AC50 under setting [2] is 0.58 µM [falling, full curve, poor fit].
